Test results taken from paper PMC5620080, “The cryo-EM structure of hibernating 100S ribosome dimer from pathogenic Staphylococcus aureus” (Nature Communications, 2017).
No constants are given. Whether binding was seen depends on the method and setting. Some binding calls cover weakened binding; strength is not graded here.

Protein sequences, listed by entry. Tags and fused reporters are not part of them.
UniProt A5IV09: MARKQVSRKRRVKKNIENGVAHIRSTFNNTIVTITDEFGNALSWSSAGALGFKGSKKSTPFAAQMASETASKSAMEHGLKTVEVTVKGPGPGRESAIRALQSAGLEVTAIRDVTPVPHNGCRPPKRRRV
UniProt P48940: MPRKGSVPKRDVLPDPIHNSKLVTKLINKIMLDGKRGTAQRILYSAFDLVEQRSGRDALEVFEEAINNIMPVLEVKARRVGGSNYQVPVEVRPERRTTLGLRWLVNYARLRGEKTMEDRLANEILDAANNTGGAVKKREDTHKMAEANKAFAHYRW

Columns and labels:
Assay in all cases: cryo-EM structure; native 100S ribosome dimers purified from S. aureus; 6.8 Å map of the 100S, 6.7 Å focused map of the dimer interface (C2 symmetry), 3.2 Å masked 30S map; both purified
[1] = target: ribosomal protein uS11 of S. aureus (S. aureus (endogenous in strain JE2)) (UniProt A5IV09)
[2] = target: T1, ribosomal protein uS9 of S. aureus (S. aureus (endogenous in strain JE2)) (UniProt Q2FW39)
T1 sequence: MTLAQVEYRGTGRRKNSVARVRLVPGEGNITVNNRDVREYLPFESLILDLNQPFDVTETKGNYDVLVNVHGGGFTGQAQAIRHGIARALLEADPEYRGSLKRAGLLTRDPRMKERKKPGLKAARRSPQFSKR

[3] = target: ribosomal protein uS7 of S. aureus (S. aureus (endogenous in strain JE2)) (UniProt P48940)

Measured: binding

B1: S. aureus hibernating promoting factor (HPFSA), full length, in the native 100S ribosome (natural protein, UniProt Q2FIN9 1-190, looked up)
chain: MIRFEIHGDNLTITDAIRNYIEEKIGKLERYFNDVPNAVAHVKVKTYSNSATKIEVTIPLKNVTLRAEERNDDLYAGIDLINNKLERQVRKYKTRINRKSRDRGDQEVFVAELQEMQETQVDNDAYDDNEIEIIRSKEFSLKPMDSEEAVLQMNLLGHDFFVFTDRETDGTSIVYRRKDGKYGLIQTSEQ
notes: hibernating promoting factor (HPF), Staphylococcus aureus JE2 (USA300), full-length hpf under its native promoter; residues 1-190; first 100 residues modelled, C-terminal domain fitted as a homology model; Two copies in the 100S dimer, one for each 70S; also called long HPF; N-HPFSA (N-terminal domain); source: S. aureus hpf-knockout strain (USA300, JE2) with plasmid pLI50hpf; isolated with the …
binds: all assays above
